PubChem BioAssay AID504744 – Drosophila RNAi Screening Center – 2011

Purpose: 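Find genes whose loss alters insulin-driven dAkt phosphorylation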 (primary screen)
Cells: Drosophila Kc167 cells
Knock-down reagent: long dsRNA against Drosophila genes, 250 ng dsRNA per well of a 384-well plate
Time to read-out: 3 days of knock-down, then overnight serum-free starvation before stimulation
Treatment: bovine insulin at 387 nM for 10 minutes after 12 h without serum
Detection: 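Per-well phospho-dAkt level from an in-cell fluorescent antibody stain, divided by a DNA-dye signal; log2 residuals turned into z-scores that take cell number into account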
Hit rule: 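Hit in the insulin screen when the two-replicate mean z-score is more extreme than plus or minus 2.5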
The deposit covers about 23,000 reagents; this is a random part of those that have a named target and a result. In the full data, 98 (0.43%) are marked active. 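Only hit calls are given; the phospho-dAkt signals, z-scores and hit direction were not deposited.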 The numbers tell different reagents against one gene apart. Names joined by + are all predicted targets of the reagent.

Target gene | reagent no. | Call
CG33080 | 1 | inactive
CG33080 | 2 | inactive
CG33080 | 3 | inactive
GatC + PolG2 | 1 | inactive
Fkbp12 (FK506-binding protein 12kD) | 1 | inactive
CG5217 | 1 | inactive
kn (knot) | 1 | inactive
kn (knot) | 2 | inactive
kn (knot) | 3 | inactive
kn (knot) | 4 | inactive
kn (knot) | 5 | inactive
asrij | 1 | inactive
Ccn | 1 | inactive
Ccn | 2 | inactive
Ccn | 3 | inactive
Ccn | 4 | inactive
CG9890 | 1 | inactive
Ir64a (Ionotropic receptor 64a) | 1 | inactive
Ir64a (Ionotropic receptor 64a) | 2 | inactive
CG42680 | 1 | inactive
CG10431 | 1 | inactive
corto | 1 | inactive
corto | 2 | inactive
CG10466 | 1 | inactive
CG13138 | 1 | inactive
CG14841 | 1 | inactive
Pen (Pendulin) | 1 | inactive
CG10300 | 1 | inactive
Vago | 1 | inactive
Nse4 (Non-SMC element 4) | 1 | inactive
CG5742 | 1 | inactive
bai (baiser) | 1 | inactive
Uch-L5R (Uch-L5-related) | 1 | inactive
CG4572 | 1 | inactive
PQBP1 (Poly-glutamine tract binding protein 1) | 1 | inactive
Ir31a (Ionotropic receptor 31a) | 1 | inactive
Atg7 (Autophagy-related 7) | 1 | inactive
Atg7 (Autophagy-related 7) | 2 | inactive
Mic26-27 (MICOS subunit 26/27) | 1 | inactive
fkh (fork head) | 1 | inactive
CG5043 | 1 | inactive
CG15118 | 1 | inactive
Targ2 (Terminal ADP-ribose protein glycohydrolase 2) | 1 | inactive
Ddc (Dopa decarboxylase) | 1 | inactive
Obp19a (Odorant-binding protein 19a) | 1 | inactive
so (sine oculis) | 1 | inactive
CG14191 | 1 | inactive
Sox102F | 1 | inactive
CG5762 | 1 | inactive
LanA (Laminin A) | 1 | inactive
Ir60b (Ionotropic receptor 60b) | 1 | inactive
Gss1 + Gss2 | 1 | inactive
Gss1 + Gss2 | 2 | inactive
spdo (sanpodo) | 1 | inactive
UbcE2M (NEDD8-conjugating enzyme UbcE2M) | 1 | inactive
CG12773 | 1 | inactive
CG6962 | 1 | inactive
Vps2 (Vacuolar protein sorting 2) | 1 | inactive
EndoA (Endophilin A) | 1 | inactive
lectin-46Ca | 1 | inactive
Lasp | 1 | inactive
CG8840 | 1 | inactive
Lcp65Aa | 1 | inactive
Ir60d (Ionotropic receptor 60d) | 1 | inactive
